Results published in patent US20060183194A1 (Genentech, published 2006).
Results are given in words; binding and its absence hold for the method and conditions named. Some binding calls cover weakened binding; strength is not graded here. For some assays here: Tags and fused reporters may be left off the sequences shown.

T1: ErbB-4 receptor-Ig fusion (human, UniProt Q15303 26-651)
T1 construct: extracellular domain;range 224-C-terminus; also called ErbB-4-Ig; not shown: human IgG heavy chain constant region from His224 (hinge) on
T1 sequence: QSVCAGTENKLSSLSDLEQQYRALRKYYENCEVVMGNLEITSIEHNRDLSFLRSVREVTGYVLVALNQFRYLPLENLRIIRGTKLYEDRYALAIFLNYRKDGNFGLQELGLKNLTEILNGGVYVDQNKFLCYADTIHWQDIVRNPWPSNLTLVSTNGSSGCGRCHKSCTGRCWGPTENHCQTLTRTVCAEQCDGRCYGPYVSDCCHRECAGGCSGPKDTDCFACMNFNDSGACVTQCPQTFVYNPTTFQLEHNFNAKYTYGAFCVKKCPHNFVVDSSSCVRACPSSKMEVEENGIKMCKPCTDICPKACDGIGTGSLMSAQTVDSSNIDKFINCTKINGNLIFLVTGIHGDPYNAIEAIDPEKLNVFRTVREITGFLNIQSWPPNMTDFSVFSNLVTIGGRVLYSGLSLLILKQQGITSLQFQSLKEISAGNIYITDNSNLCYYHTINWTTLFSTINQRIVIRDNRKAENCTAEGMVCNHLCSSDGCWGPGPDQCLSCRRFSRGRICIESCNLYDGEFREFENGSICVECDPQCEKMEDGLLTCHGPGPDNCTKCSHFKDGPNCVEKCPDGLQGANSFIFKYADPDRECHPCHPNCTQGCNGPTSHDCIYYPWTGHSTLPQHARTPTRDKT


Molecular target: T2, ErbB-3 receptor-Ig fusion (human, UniProt P21860 20-643)
T2 construct: extracellular domain;range 224-C-terminus; also called ErbB-3-Ig; 3/3 homodimer; not shown: human IgG heavy chain constant region from His224 (hinge) on
Assay: phage ELISA

| Binder | binding |
| --- | --- |
| Library B variant B3 of HRG-β1 EGF on phage (ligand, not shown: large carriers; small tags and cut ends) SHLVKCGEEREGFCVNGGECFMVKDLSNPSRYLCKCPNEFTGDRCQNYVMAS | binds |
| Library B variant B5 of HRG-β1 EGF on phage (ligand, not shown: large carriers; small tags and cut ends) SHLVKCGWDREGFCVNGGECFMVKDLSNPSRYLCKCPNEFTGDRCQNYVIAS | binds |
| Library B variant B10 of HRG-β1 EGF on phage (ligand, not shown: large carriers; small tags and cut ends) SHLVKCDKSREGFCVNGGECFMVKDLSNPSRYLCKCPNEFTGDRCQNYVIAS | binds |
| Library D variant D1 of HRG-β1 EGF on phage (ligand, not shown: large carriers; small tags and cut ends) SHLVKCAEKEKTFCVNGGECYKVRILSNPSRYLCKCPNEFTGDRCQNYVIAS | binds |
| SHLVKCAEKEKTFCVNGGECFMVKDYRYRMCKCPNEFTGDRCQNYVIAS (ligand, not shown: large carriers; small tags and cut ends) [Library E variant E3 of HRG-β1 EGF on phage] | binds |
| SHLVKCAEKEKTFCVNGGECFMVKDTHYRMCKCPNEFTGDRCQNYVMAS (ligand, not shown: large carriers; small tags and cut ends) [Library E variant E6 of HRG-β1 EGF on phage] | binds |
| SHLVKCAEKEKTFCVNGGECFMVKDTKYRGCKCPNEFTGDRCQNYVMAS (ligand, not shown: large carriers; small tags and cut ends) [Library E variant E8 of HRG-β1 EGF on phage] | binds |

Molecular target: T1, ErbB-4 receptor-Ig fusion
Assay: phage ELISA

| Binder | binding |
| --- | --- |
| Library B variant B3 of HRG-β1 EGF on phage (ligand, not shown: large carriers; small tags and cut ends) SHLVKCGEEREGFCVNGGECFMVKDLSNPSRYLCKCPNEFTGDRCQNYVMAS | binds |
